Data published in patent US20070196490A1, “Method of enhancing needleless transdermal powered drug delivery” (priority 1999, published 2007).
Part of at least one peptide drawing is inferred or uncertain, most often the ends.

Test system: Plasma ionised calcium (Ca2+)
Assay: Clinical pharmacodynamic response to sCT (plasma ionised calcium)
Assay type: in vivo, human
Settings: all treatments (SC, particle injection with and without occlusion)

Compound: CC(C)C[C@H](NC(=O)[C@H](CCCCN)NC(=O)CNC(=O)[C@H](CC(C)C)NC(=O)[C@@H](NC(=O)[C@@H]1CSSC[C@H](N)C(=O)N[C@@H](CO)C(=O)N[C@@H](CC(N)=O)C(=O)N[C@@H](CC(C)C)C(=O)N[C@@H](CO)C(=O)N[C@@H]([C@@H](C)O)C(=O)N1)C(C)C)C(=O)N[C@@H](CO)C(=O)N[C@@H](CCC(N)=O)C(=O)N[C@@H](CCC(=O)O)C(=O)N[C@@H](CC(C)C)C(=O)N[C@@H](Cc1c[nH]cn1)C(=O)N[C@@H](CCCCN)C(=O)N[C@@H](CC(C)C)C(=O)N[C@@H](CCC(N)=O)C(=O)N[C@H](C(=O)N[C@@H](Cc1ccc(O)cc1)C(=O)N1CCC[C@H]1C(=O)N[C@@H](CCCNC(=N)N)C(=O)N[C@H](C(=O)N[C@@H](CC(N)=O)C(=O)N[C@H](C(=O)NCC(=O)N[C@@H](CO)C(=O)NCC(=O)N[C@H](C(=O)N1CCC[C@H]1C(N)=O)[C@@H](C)O)[C@@H](C)O)[C@@H](C)O)[C@@H](C)O [sCT, salmon calcitonin]
- plasma ionised calcium response: transient, hypocalcaemic response
